Cleaved PARP after 72 h of treatment

Source: doi:10.1371/journal.pone.0140310, primary screening data, rounded.

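Human melanoma cell lines in 1,536-well plates were treated with two drugs together for 72 h, then fixed, stained and imaged. Each value is the cleaved-PARP-positive fraction of nuclei relative to DMSO-treated wells, in %, so that 100 equals the control and higher values mean more apoptosis. Concentrations were fixed for each drug; these are the higher of two levels. The file gives one value for each pair and line, without errors, so small differences may be noise. Basal and induced levels differ widely between cell lines.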
Only some of the drugs and lines screened are listed, without regard to their results.
An entry leaves out what has no value listed here.
A dash means that no value is listed here.

Compounds and concentrations:
ruxolitinib (5 µM): N#CC[C@H](C1CCCC1)n1cc(-c2ncnc3[nH]ccc23)cn1
dovitinib (0.5 µM): CN1CCN(c2ccc3nc(-c4c(N)c5c(F)cccc5[nH]c4=O)[nH]c3c2)CC1
MK-2206 (2 µM): NC1(c2ccc(-c3nc4ccn5c(=O)[nH]nc5c4cc3-c3ccccc3)cc2)CCC1
lenalidomide (5 µM): Nc1cccc2c1CN(C1CCC(=O)NC1=O)C2=O (stereo not drawn)
NVP-TAE684 (0.4 µM): COc1cc(N2CCC(N3CCN(C)CC3)CC2)ccc1Nc1ncc(Cl)c(Nc2ccccc2S(=O)(=O)C(C)C)n1
lapatinib (4 µM): CS(=O)(=O)CCNCc1ccc(-c2ccc3ncnc(Nc4ccc(OCc5cccc(F)c5)c(Cl)c4)c3c2)o1
erlotinib (4 µM): C#Cc1cccc(Nc2ncnc3cc(OCCOC)c(OCCOC)cc23)c1

| # | Combination | WM3619 | MZ2-MEL | A2058 | SK-MEL-2 | UACC-257 | MeWo | MEL-HO | WM1745 | G-361 | IPC-298 | UACC-62 |
|---|---|---|---|---|---|---|---|---|---|---|---|---|
| 1 | lapatinib + NVP-TAE684 | 202 | 193 | 749 | 115 | 70.4 | 158 | 110 | - | 153 | 64.7 | 1270 |
| 2 | lapatinib + ruxolitinib | 106 | 55.8 | 136 | 93.9 | 46.7 | 147 | 54.1 | 131 | 401 | 49.7 | - |
| 3 | lenalidomide + lapatinib | 110 | - | 108 | 55.8 | 71.5 | 66.0 | 89.0 | 97.6 | 172 | 131 | 399 |
| 4 | lenalidomide + dovitinib | 191 | 208 | 771 | 266 | 48.7 | 313 | 104 | 183 | 227 | 303 | 152 |
| 5 | dovitinib + MK-2206 | 100 | 117 | 549 | 341 | 49.4 | 265 | 74.2 | 190 | 274 | 270 | 153 |
| 6 | ruxolitinib + erlotinib | 140 | 266 | 240 | 126 | 120 | 129 | 107 | 237 | 228 | 190 | 153 |
| 7 | NVP-TAE684 + MK-2206 | 156 | 229 | 413 | 221 | 74.4 | 57.2 | 192 | - | 232 | 52.2 | 669 |
| 8 | MK-2206 + lapatinib | 1530 | 119 | 365 | 66.8 | 85.6 | 13.6 | 62.0 | 483 | 690 | 119 | 198 |
| 9 | NVP-TAE684 + erlotinib | 151 | 107 | 374 | 371 | 47.2 | 283 | 27.7 | 291 | 190 | 252 | 276 |
| 10 | MK-2206 + ruxolitinib | 90.4 | - | 215 | 76.4 | 43.4 | 101 | 113 | 112 | 238 | 70.5 | 301 |
| 11 | ruxolitinib + dovitinib | 113 | 194 | 504 | 155 | 71.3 | 494 | 101 | 171 | 255 | 314 | 96.6 |
| 12 | erlotinib + dovitinib | 171 | 129 | 841 | 146 | 66.8 | 200 | 68.0 | 142 | 188 | 536 | 204 |
| 13 | erlotinib + MK-2206 | 126 | 74.4 | 216 | 150 | 156 | 63.7 | 225 | 161 | 48.2 | 78.8 | 263 |
| 14 | lapatinib + erlotinib | 108 | 43.2 | 146 | 123 | 67.8 | 83.8 | 52.8 | 123 | 120 | 367 | 301 |
| 15 | lenalidomide + NVP-TAE684 | 107 | 185 | 179 | 145 | 26.2 | 60.3 | 56.1 | 324 | 92.1 | 46.7 | 33.1 |
| 16 | NVP-TAE684 + ruxolitinib | 129 | 141 | 328 | 89.1 | 104 | 86.8 | 346 | - | 40.6 | 95.9 | 374 |
| 17 | lenalidomide + ruxolitinib | 111 | 116 | 210 | 120 | 23.9 | 88.1 | 42.3 | 94.2 | 166 | 101 | 104 |
| 18 | MK-2206 + lenalidomide | 119 | 49.9 | 101 | 29.3 | 36.6 | 33.1 | 103 | 90.0 | 76.9 | 33.5 | 207 |
| 19 | lenalidomide + erlotinib | 109 | 94.4 | 184 | 110 | 124 | 100 | 124 | 144 | 63.4 | 244 | 269 |
| 20 | NVP-TAE684 + dovitinib | 207 | 421 | 1330 | 469 | 60.4 | 225 | 120 | - | 171 | 102 | 241 |

Repeated from the top, 2 entries:

{"combination": "lapatinib + NVP-TAE684", "WM3619": 202, "MZ2-MEL": 193, "A2058": 749, "SK-MEL-2": 115, "UACC-257": 70.4, "MeWo": 158, "MEL-HO": 110, "G-361": 153, "IPC-298": 64.7, "UACC-62": 1270}
{"combination": "lapatinib + ruxolitinib", "WM3619": 106, "MZ2-MEL": 55.8, "A2058": 136, "SK-MEL-2": 93.9, "UACC-257": 46.7, "MeWo": 147, "MEL-HO": 54.1, "WM1745": 131, "G-361": 401, "IPC-298": 49.7}